HELM strings list residues between dots; [ac] is acetyl, [am] amide, other brackets name non-standard units. Non-standard residues stand in square brackets, D forms with d. *: point of attachment. Sta = CC(C)C[C@H](N)[C@@H](O)CC(=O)O; Cbz = O=C(OCc1ccccc1)*; Boc = CC(C)(C)OC(=O)*

The nature of this data set: general procedure: solution-phase peptide synthesis; active esters (ONSu, ONp, OTcp) with HOBt/NEM; DCCI/HONSu; Bop/DIPEA.
The mark [1] stands for this setting: late stage modification step, TFA salt.

As for H--Phe--Sta--Ala--Sta--OMe.TFA, under setting [1], the step yield stood at 98%.

Substance Boc-V[Sta]A[Sta]-OMe came in with a step yield (coupling step) of 38%.

For the substance Z--Phe--ILe--Sta--Ala--Sta--OMe, the step yield (coupling step) is listed as 86%.

For Cbz-FF[Sta]A[Sta]-OMe, the step yield (coupling step) was 69%.

With “PEPTIDE1{[PhSO2].F.F.[Sta].A.[Sta].[OMe]}$$$$V2.0”, under “coupling step”, the step yield was determined as 34.5%.

Cbz-FP[Sta]A[Sta]-OMe displayed a step yield (coupling step) of 54%.

For the substance Boc-[dV][Sta]A[Sta]-OMe, the step yield (coupling step) came out at 40%.

Take “PEPTIDE1{[Boc].[dF].V.[Sta].A.[Sta].[OMe]}$$$$V2.0”: the step yield (coupling step) amounted to 85%.

Turning to “PEPTIDE1{[ac].F.[Nva].[Sta].A.[Sta].[OMe]}$$$$V2.0”, the step yield (coupling step) is given as 63%.

On to H-P[Sta]A[Sta]-OMe, for which the step yield (late stage modification step) was determined as 100%.

Take H--Ile--Sta--Ala--Sta--OMe.TFA: the step yield under setting [1] is recorded as 93%.

Regarding iVa--Phe--Phe--Sta--Ala--Sta--NH2, under “coupling step”, the step yield was 58%.

In turn, “PEPTIDE1{[PhPr].F.F.[Sta].A.[Sta].[OMe]}$$$$V2.0” had a step yield (coupling step) of 71%.

Where the note is “coupling step”, “PEPTIDE1{[iVa].F.F.[Sta].A.[Sta].[OMe]}$$$$V2.0” came in with a step yield of 73%.

On to Cbz-FV[Sta]A[Sta]-OMe, for which the step yield (coupling step) was found to be 81%.

Where the note is “coupling step”, Cbz-YV[Sta]A[Sta]-OMe gave a step yield of 85%.

Consider Boc-[dW]W[Sta]A[Sta]-OMe, for which the step yield (coupling step) stood at 42%.

“PEPTIDE1{[iVa].F.[Lys(Z)].[Sta].A.[Sta].[OMe]}$$$$V2.0”: under “coupling step”, the step yield was 87%.

Boc-W[Sta]A[Sta]-OMe: the step yield (coupling step) is on record as 56%.

In turn, Boc--Nle--Sta--Ala--Sta--OMe came in with a step yield (coupling step) of 90%.

For Boc-L[Sta]A[Sta]-OMe, the step yield (coupling step) was 38%.

Boc-P[Sta]A[Sta]-OMe came in with a step yield (coupling step) of 85%.

The substance Boc--Nva--Sta--Ala--Sta--OMe had a step yield (coupling step) of 51%.

Substance H--Nva--Sta--Ala--Sta--OMe.TFA registered a step yield (late stage modification step) of 100%.

For the setting “coupling step”, “PEPTIDE1{[Boc].I.H.[Sta].A.[Sta].[OMe]}$$$$V2.0” showed a step yield of 24%.

For the setting “coupling step”, Cbz-YY[Sta]A[Sta]-OMe came in with a step yield of 71%.

For Cbz-F[dV][Sta]A[Sta]-OMe, the step yield (coupling step) came out at 29%.

Adoc--Phe--Phe--Sta--Ala--Sta--OMe yielded a step yield (coupling step) of 58%.

Boc-I[Sta]A[Sta]-OMe: the step yield (coupling step) is listed as 56%.

Regarding “PEPTIDE1{[tBuAc].F.F.[Sta].A.[Sta].[OMe]}$$$$V2.0”, the step yield (coupling step) worked out at 72%.

Under “late stage modification step”, Boc-FF[Sta]A[Sta]-OH came in with a step yield of 87%.

Substance “PEPTIDE1{[iVa].F.A.[Sta].A.[Sta].[OMe]}$$$$V2.0” registered a step yield (coupling step) of 88%.

Substance H-V[Sta]A[Sta]-OMe gave a step yield (late stage modification step) of 100%.

With H--(D)Phe--Sta--Ala--Sta--OMe.TFA, under setting [1], the step yield stood at 93%.

Substance Cbz-F[dW][Sta]A[Sta]-OMe registered a step yield (coupling step) of 51%.

Under “late stage modification step”, H-Y[Sta]A[Sta]-OMe came in with a step yield of 96%.

With iVa--Phe--Nle--Sta--Ala--Sta--OMe, where the note is “coupling step”, the step yield is listed as 73%.

For the substance H--(D)Trp--Sta--Ala--Sta--OMe.TFA, the step yield under setting [1] is 95%.

Boc-[dF][Sta]A[Sta]-OMe showed a step yield (coupling step) of 37%.

Under “coupling step”, “PEPTIDE1{[Boc].F.H.[Sta].A.[Sta].[OMe]}$$$$V2.0” had a step yield of 45%.

Consider Boc-H[Sta]A[Sta]-OMe, for which the step yield (coupling step) worked out at 53%.

Substance Boc-F[Sta]A[Sta]-OMe returned a step yield (coupling step) of 70%.

Cbz-Y[Sta]A[Sta]-OMe came in with a step yield (coupling step) of 75%.

Under “coupling step”, “PEPTIDE1{[Boc].F.F.[Sta].A.[Sta].[OMe]}$$$$V2.0” gave a step yield of 65%.

Consider “PEPTIDE1{[Boc].[dF].F.[Sta].A.[Sta].[OMe]}$$$$V2.0”, for which the step yield (coupling step) amounted to 82%.

As for Boc--His(Boc)--Phe--Sta--Ala--Sta--OMe, the step yield (coupling step) was 60%.

Adoc--Phe--Trp--Sta--Ala--Sta--OMe showed a step yield (coupling step) of 65%.

Where the note is “coupling step”, Z Phe--Trp--Sta--Ala--Sta--OMe showed a step yield of 92%.

As to “PEPTIDE1{[Boc].W.W.[Sta].A.[Sta].[OMe]}$$$$V2.0”, the step yield (coupling step) stood at 44%.

Take Boc-W[dW][Sta]A[Sta]-OMe: under “coupling step”, the step yield came to 85%.

As to H--(D)Val--Sta--Ala--Sta--OMe.TFA, the step yield under setting [1] worked out at 100%.

As for H--Leu--Sta--Ala--Sta--OMe.TFA, the step yield (late stage modification step) is given as 100%.

“PEPTIDE1{[iVa].F.L.[Sta].A.[Sta].[OMe]}$$$$V2.0”: where the note is “coupling step”, the step yield was 55%.

On to H--His--Sta--Ala--Sta--OMe.2TFA, for which, for the setting “late stage modification step, 2TFA salt”, the step yield stood at 91%.

As to “PEPTIDE1{[iVa].F.G.[Sta].A.[Sta].[OMe]}$$$$V2.0”, for the setting “coupling step”, the step yield was determined as 42%.

Turning to Boc-[dW][Sta]A[Sta]-OMe, the step yield (coupling step) was found to be 58%.

These data come from patent US4481192A (SANOFI, priority 1982, dated 1984).
